Test results reported in PubChem BioAssay AID2762 (National Center for Advancing Translational Sciences (NCATS), 2010).
Inconclusive results, whose numbers are uncertain, are shown with a selection of clear calls. Potencies beside an inconclusive call are fits to weak or partial responses and may not hold up. The source made the active and inactive calls. Calls come from the whole dose curve; as a rule, active = well fitted inhibition curve with a large enough effect; inconclusive = small, poorly fitted or top-dose-only effect, or effect the other way; inactive = no such curve, though single readings can be large or run the other way.

Protein sequences, listed by entry. Tags and fused reporters are not part of them. Lines headed by an entry give the natural chain unless they say otherwise; changes in a name come on top.
UniProt P51450: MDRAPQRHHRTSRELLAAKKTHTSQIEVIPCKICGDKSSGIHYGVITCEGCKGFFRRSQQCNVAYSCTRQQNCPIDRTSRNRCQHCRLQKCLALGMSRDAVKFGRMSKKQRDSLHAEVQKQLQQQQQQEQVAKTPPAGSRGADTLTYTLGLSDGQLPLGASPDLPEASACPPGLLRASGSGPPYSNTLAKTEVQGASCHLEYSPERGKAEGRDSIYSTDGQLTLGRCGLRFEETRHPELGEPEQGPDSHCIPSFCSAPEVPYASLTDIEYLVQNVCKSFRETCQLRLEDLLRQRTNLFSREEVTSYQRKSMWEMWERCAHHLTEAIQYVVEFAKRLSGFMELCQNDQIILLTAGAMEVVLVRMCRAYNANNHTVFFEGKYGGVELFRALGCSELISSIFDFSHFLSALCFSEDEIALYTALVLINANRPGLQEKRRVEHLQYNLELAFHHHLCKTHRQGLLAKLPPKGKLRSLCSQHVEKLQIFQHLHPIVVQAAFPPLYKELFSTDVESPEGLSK

Target: Nuclear receptor ROR-gamma (Mus musculus) (UniProt P51450)
Test: Concentration response confirmation assay for inhibitors of ROR gamma transcriptional activity
Details: Drosophila S2 Gal4-RORgamma UAS-luciferase, 20 h; series mostly up to 46.1 µM; activity change, negative = inhibition: at the top concentration
Summary of the method: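 In this cell-based reporter format, copper sulfate (700 uM final) drives Gal4–ROR gamma fusion expression from a metallothionein promoter in Drosophila Schneider cells; compounds preincubated 1 hr, reporter read after 20 hr at ambient temperature.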

Potency, active:
COc1ccc(-c2cc(C(=O)NNC3=NCCC3)c3c(C)nn(-c4ccccc4)c3n2)cc1 4.45 µM, COC(=O)c1ccc(OCC(=O)c2ccc(O)cc2O)cc1 0.125 µM, COc1ccc(C(=O)/C=C/c2ccc(OC)cc2OC)c(O)c1 0.888 µM, Cc1ccc(Oc2nc(-c3ccccn3)nc3ccccc23)cc1 0.396 µM, CCOC(=O)c1sc(NC(=O)c2cc3c(s2)CCC(C)C3)nc1C (stereo not given) 0.0996 µM, Oc1ccccc1-c1cc(-c2ccc3c(c2)OCCO3)n[nH]1 11.2 µM, CCOc1ncccc1C(=O)OCC(=O)Nc1ccc(-c2nc3ccc(C)cc3s2)cc1 0.396 µM

Potency, inconclusive:
O=C(CCCN1C(=O)/C(=C/c2ccccc2Cl)SC1=S)Nc1cccnc1 0.628 µM [inhibitor, full curve, poor fit], CN1CCN(CCC(=O)Nc2cccc(F)c2)CC1 0.25 µM [activator, full curve, poor fit], CCOC(=O)Cc1nnc(Nc2ccc(C(=O)NC)cc2)c2ccccc12 11.2 µM [activator, full curve, poor fit], Cc1c(CCC(=O)N[C@@H](CC(C)C)C(=O)O)c(=O)oc2cc3oc4c(c3cc12)CCCC4 3.15 µM [inhibitor, full curve, poor fit], Cc1c(OC(C)C(=O)NCc2cccnc2)ccc2c3c(c(=O)oc12)CCCC3 (stereo not given) 15.8 µM [activator, partial curve], Cc1nc(-c2ccc(O)c(O)c2)cs1 6.28 µM [activator, full curve], O=C(c1cc(-c2ccc(Cl)cc2)n[nH]1)N1CCc2ccccc2C1 25 µM [activator, partial curve, poor fit], Cc1ccc(C)c(-n2[nH]c3c4c(ccc3c2=O)C(=O)c2ccccc2C4=O)c1 19.9 µM [inhibitor, partial curve, poor fit], Cc1ccc(C(=O)O/N=C/c2ccc(N(C)C)cc2)cc1 15.8 µM [inhibitor, partial curve, poor fit], O=C(/C=C/c1c(F)cccc1Cl)N1CCc2ccccc2C1 35.3 µM [activator, single point], CN(Cc1ccccc1)c1ncnc2ccc(Br)cc12 17.7 µM [activator, partial curve], COc1cccc(Cn2c(NCc3ccco3)nc3c2c(=O)n(C)c(=O)n3C)c1 11.2 µM [inhibitor, full curve], Cc1nc2c(-c3ccc(F)cc3)cnn2c(N)c1-c1ccccc1 0.0089 µM [inhibitor, full curve, poor fit], COc1ccc(C(C#N)N2N=C(C)CC2c2ccccc2)cc1OC (stereo not given) 0.0125 µM [activator, full curve, poor fit], S=C(c1cn(CCOc2ccccc2)c2ccccc12)N1CCCC1 22.3 µM [inhibitor, partial curve, poor fit], CCC(C)NC(=O)CSc1nnc(-c2cc(-c3ccc(C)cc3)nc3ccccc23)n1N (stereo not given) 7.05 µM [activator, full curve], COc1cc(C(=O)NC2CC(C)(C)Cc3c2cnn3-c2ccccc2)cc(OC)c1OC (stereo not given) 5.6 µM [activator, full curve, poor fit], CCOc1ccc(-c2cc(CCCC(=O)NCc3cccnc3)no2)cc1 0.125 µM [inhibitor, full curve, poor fit], CC(=O)c1cnc2nc(C(F)(F)F)nn2c1C 0.0315 µM [activator, full curve, poor fit], COc1cc(CNS(=O)(=O)c2ccc3c(c2)CC(C)N3C(=O)C2CCC2)cc(OC)c1OC (stereo not given) 2.5 µM [activator, partial curve], COc1ccc(CNC(=O)COC(=O)C2CC3C=CC2C3)cc1 (stereo not given) 0.0005 µM [activator, full curve, poor fit], CN(C)S(=O)(=O)c1ccc(NC(=O)/C=C/c2ccccc2Cl)cc1 0.112 µM [inhibitor, full curve, poor fit], CN1CCN(C(=O)CCN2C(=O)/C(=C\c3ccccc3F)SC2=S)CC1 17.7 µM [inhibitor, partial curve, poor fit], Cc1nc2c(-c3ccccc3)cnn2c(N)c1-c1ccccc1 3.97 µM [inhibitor, partial curve, poor fit], Cc1ccc(-n2[nH]c3c4c(ccc3c2=O)C(=O)c2ccccc2C4=O)cc1 0.888 µM [activator, full curve, poor fit]

Activity change, negative = inhibition, inactive:
Cc1cc(C)c(S(=O)(=O)NCCn2ccc3ccccc32)c(C)c1 -4.64%, COc1ccc(C(=O)Nc2ccc(NC(=O)c3cccs3)cn2)cc1 -1.79%, O=C(Cn1c(=O)oc2ccc(Cl)cc21)Nc1ccon1 11.1%
